Hit rate of the full screen: of about 53,000 sequences, about 3,700 (7%) were called active.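 How the source made its calls: active means gene knockdowns whose robust z-score for IL-1 alpha signal is at least 2 or at most -2, so actives lie on both sides; inactive means the rest.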 The list shows a part of the results.

The nature of the assay: Components of the Cytosolic LPS Sensing Pathway: Gene Identification via Genome-wide siRNA Screen.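 Further: robust z of the log signal after scaling to non-targeting control siRNA wells of the plate.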 Conditions: RAW264.7 macrophages, IL-1a HTRF, actives lie on both sides, screened at 100 nM (by protocol), cells primed 5 h with Pam3CSK4 first. The procedure, abridged:
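RAW264.7 mouse macrophages reverse-transfected with single siRNAs (100 nM final) for 48h, primed with Pam3CSK4 for 5 hours, then transfected with LipidA for 24 hour. Supernatant IL-1a read by HTRF; values normalized to negative-control median, log-transformed robust z-scores.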
Background: TR-FRET usually uses a lanthanide donor and a delayed reading to cut background.
Regarding GGCUUUCAAAUGAUUAAAGTT against Wdr60, the z-score is inactive: 0.435.
As to GAAGGUUCCUCUGUAAAAATT against Defb13, the z-score was inactive: -1.45.
Regarding CCUAGUUCCCAAAGAGUGGTT against Tcp11l1, the z-score is inactive: 0.191.
As to AACCUCAAAUGUUCAGUCCTT against Lce3f, the z-score was inactive: 1.04.
Turning to GGACCAGGAUGAGAAGAUUTT against Trim42, the z-score is inactive: -0.499.
With GGUUGAACAACUCUCUGCUTT against Hrh2, the z-score was inactive: -0.385.
On to CGGCCUCAAUUUACAGCUATT against Naprt, for which the z-score is inactive: 0.357.
Consider GCCGGGCUCGCCCUGCUCCTT against Plac9a, for which the z-score is inactive: 0.497.
The value for CCCUUAGACAAACAUGCUATT against Zfp446 was inactive: -0.368.
Take GCUGUGCAGAUUAAAUUUGTT against Rsbn1: the z-score is inactive: -0.558.
For GGAGAUGGAGAAGUAGAUUTT against Abcf2, the z-score is inactive: 0.224.
For the sequence GGAAAGAGGAUAUUAAGUUTT against Wdr33, the z-score is inactive: 1.73.
The value for “GGCAGUUAUUUCUAUCUUATT against 1700018F24Rik” was inactive: 0.683; that for GGAGAUUCGGCAUUAAGACTT against Gtpbp8 was inactive: -0.675; that for GCUUUUGUAUACCUACUGUTT against Gtf3c3 was inactive: -1.02.
In the case of GCUUCCUUAUUGACAAUGGTT against Rbm19, the z-score is inactive: 0.596.
The value for GCAUCGUGUGCAAGAUCCUTT against Atp4b was active: 2.74.
In the case of GGUGGUCUCCUACAAUGCCTT against Olfr1451, the z-score is active: 2.3.
For GGUGAUUCAUGUGAACUCATT against Zfp27, the z-score is inactive: -0.511.
The value for GGAGAAGAGCAGAAUAUGCTT against Baz1a was inactive: -1.48; that for GGAUUAAAGAAAGACAUUGTT against Yme1l1 was active: -2.04; that for GGCAUAGCCACUAAAAAAATT against Muc2 was inactive: -0.832.
GGUAGGGUUUCAUUAUGAATT against Med28: the z-score was inactive: -1.38.
Turning to GGAGGUAUUCAAGAUUUGATT against Exoc5, the z-score is inactive: 0.466.
The value for GCUACCUAAGUUGAAAAAGTT against Anp32b was inactive: 0.546; that for GGGAUACAUCUAUUGAAUCTT against Zfp758 was inactive: -1.26.
GCACAUUGGCUGUGAGUCATT against Tmem132a: the z-score was inactive: 0.512.
Turning to GCAAAGCCCUAUUCCUAAUTT against Vmn2r42, the z-score is inactive: 1.21.
For GGCUAAAUCUAGCUACUAATT against Lair1, the z-score was inactive: 1.89.
Regarding GGAAGACUUGUUUGACAUUTT against Stk11, the z-score was inactive: 0.298.
With GCUAACAACGUGUGCUUCUTT against Fam20a, the z-score is inactive: -0.174.
Consider GCUACAGGAUUUAUACAUGTT against Dhx29, for which the z-score was inactive: 0.865.
Consider GGUAUGUAACUUCUUCAUUTT against Irf2bpl, for which the z-score was inactive: 0.616.
For the sequence GCAGAUUACUUCCAUCAGUTT against Rps20, the z-score is inactive: -0.988.
Regarding GCCCUUGUUAGGUCUUGUCTT against Stard8, the z-score is inactive: -1.91.
For the sequence CCCUGACAUUUGGAAUGUUTT against Gtsf1l, the z-score was inactive: -1.06.
The value for GGUUGGAAAAUGAAUGAAATT against Slc44a2 was inactive: 0.236; that for GCUGUUCCGUAGCCAGAGUTT against Homer3 was inactive: 0.382.
As to GGUUAAAGUUAAAUCUGUCTT against C6, the z-score was active: -2.35.
On to GGAAGAAAGUGAAACUUGATT against Dnajc17, for which the z-score was inactive: 0.0498.
For the sequence GGACGAAGAGGAGAAAGAGTT against Ccdc184, the z-score was inactive: -1.25.
Regarding GGAUGAAAAAGUUAAGAAGTT against Lmod1, the z-score was inactive: 0.886.
Turning to GGAAUCGCUACCCUGACAUTT against Pitx3, the z-score was inactive: -1.69.
For GGCUGUUGUGUUAUUUGUUTT against Tusc2, the z-score was inactive: 0.0201.
For the sequence GGCUGAGAAUCUGGUUGAGTT against Casp12, the z-score was inactive: -1.57.
Regarding GGUUAUCAAACAGGUGUUGTT against Aldh3b1, the z-score was active: 2.22.
With GGUUCUGUUGUGUGACUAUTT against Mme, the z-score is inactive: -0.673.
Regarding CUACACGUAAGGAUGUAUCTT against Fcmr, the z-score is inactive: -0.774.
In the case of GCUCCCAGUUCUCUUUCUUTT against Defb44-ps, the z-score is inactive: 1.41.
As for AGUAUACGAUGACUAUUUCTT against Zfp51, the z-score was inactive: 1.27.
Take CCCAAUCGGUUAAUUGUUGTT against Vcp: the z-score was active: -2.37.
For GCAAGAAAGCAUGGUAUAATT against Slc25a40, the z-score was inactive: -1.17.
GGAUUUGUUCGACCAGAUUTT against Epb41l4b: the z-score is inactive: 0.831.
Turning to GGUGGAAGACGUACUUCCUTT against Nfatc1, the z-score is inactive: 0.191.
The value for CCUUGGCACAUGGAUCUAUTT against Tomm22 was inactive: 1.36.
For the sequence GCCUAGGUAGUGGAGAUGATT against Nkd1, the z-score is inactive: -0.666.
Turning to GCUGGAUAGCACAUGUCUATT against Klk1b16, the z-score is inactive: -1.94.
Take GGACCUAGAGCGGAGUCUATT against Golga1: the z-score was inactive: -1.7.
For the sequence CCUAAGGUACCAUUUUAAATT against Clp1, the z-score is inactive: 0.225.
On to GGGUAAAGUUGUCAGUGGUTT against Cd4, for which the z-score was inactive: 0.0342.
As for GCAGCUUAUCACAAUGCUGTT against Asb3, the z-score is inactive: 0.396.
GGAGAAUCCUGAAACAGGGTT against Kif3c: the z-score is inactive: -0.221.
Turning to GGACUGGAUGCCACUGGUATT against Cmpk2, the z-score was inactive: 0.259.
On to CCAAGGCCGUGUCAUUCAUTT against Adssl1, for which the z-score is inactive: 0.893.
As for CAGCAAAAACGACCCACCATT against Eef1a1, the z-score was inactive: -1.13.
Turning to GGAGGAAAAAGAGAAAAAUTT against Slc16a2, the z-score is inactive: -0.734.
As for GCUCCACCGAGAAAUUACUTT against Magt1, the z-score is inactive: 1.63.
The value for GCCAUAUCCUUCAAGAGACTT against Cstb was inactive: 0.0313.
For GGAGUUUGAUGAAUCGUCCTT against Tgds, the z-score was inactive: 0.41.
Turning to GGACCUAUGCAGCACUAAATT against Ppp1r11, the z-score is inactive: 1.73.
With CGGACUCCUGACAUUAUAATT against Cd33, the z-score is inactive: 0.429.
CCUAUCUCCCUGUUCGAUATT against Rab36: the z-score was inactive: -1.01.
As for GCGAGAGUUUUUCUUCAACTT against Hoxc11, the z-score is inactive: 0.385.
Consider GCAAAUCAUGACUAUUGUATT against Atat1, for which the z-score is inactive: 0.00079.
With GGUUUUCAGAUCUAGGAUUTT against Casp6, the z-score is inactive: -0.575.
The value for GGUGUCCUAUAACCAAGCATT against Atn1 was inactive: -0.347.
The value for GGUGAACCAAACAACAAACTT against Sele was inactive: -0.159; that for GGUCGUGUAUGUCACUGCATT against Slc6a11 was inactive: -0.395; that for CGAAUACUACGCCAAGAUUTT against Abca2 was inactive: -0.867.
As to GCUCCAAGUGUUAUUAGUCTT against Rgl2, the z-score was inactive: 0.291.
The value for CCUUUAGAAGUAAACCUCGTT against Usp16 was inactive: 1.35.
For GCACUAUUUUGGAUUAGUCTT against Usp12, the z-score is inactive: -0.431.
Consider GCCUUAUUAGAGAAAAGAGTT against Krt1, for which the z-score is inactive: -0.141.
The value for GGAGGCAGCAAAAAGGUUGTT against Olfr1110 was inactive: -0.419; that for GGGUGAUCGCACGAUUGAGTT against Casq2 was inactive: 0.364.
Turning to GAAGUCUGUGACCAGUUCCTT against Fgf2os, the z-score was inactive: 0.735.
For the sequence GGCAUAUCGAGUGCUCAGUTT against Dnajc4, the z-score was inactive: -0.905.
The value for GGUCAUUCCGGGAUUUUUUTT against Ibtk was inactive: -0.777.
The value for GGAAAUUUCAGAGCUCAAGTT against Trpc2 was active: -2.81; that for GGAGUAGCAAAGAACUGCUTT against Arpc4 was inactive: -0.762; that for CGGCAGUCCUUGUUAGGUATT against Olfr374 was inactive: 1.33.
Take GCUCUCACACAUGUUUGUUTT against Eddm3b: the z-score is inactive: 0.222.
With GGAUGAAGUAGACUUAGAUTT against Depdc1b, the z-score was inactive: 1.16.
The value for CCAACUGUUUGAGCUCUAUTT against Fam126b was inactive: 0.29; that for GGACAGUGAAUCUAUUGCUTT against Herc1 was inactive: -1.41.
As for GGGCUGAAGUGAAAACAGCTT against Mmp8, the z-score was inactive: -0.523.
The value for CCUGAAAGUCGUUUAUCGCTT against Il7r was active: 2.74; that for GGCUUUGUAUAUUCUGUUGTT against Fkbp6 was inactive: -0.635; that for GGUUCACGGGUUCUAAGAUTT against Eif1b was active: 2.35.
In the case of GGAAGGAAGAAAAAAUAGUTT against Acat1, the z-score is inactive: 1.09.
Take GUCAUCACAAGUCAAGAAGTT against Prol1: the z-score is inactive: -1.25.
Regarding GGAUUUCCGUUGUCACUAATT against Krt34, the z-score is inactive: 1.92.
As for GGAUUUGACUGAGAAAGACTT against Psg27, the z-score was inactive: -0.906.
The value for GGCUACCAAUGAGACCAAUTT against Snap91 was inactive: 0.591.
In the case of CCAGAGUGUUCACAGAACATT against Batf2, the z-score was inactive: -1.43.
As to GCAUGCAGACUUACAGAAGTT against Mnd1, the z-score is inactive: 0.827.
Regarding GCACAAGUACUUCGAGCGCTT against Insm1, the z-score is inactive: 0.683.
